Measurements as given in PubChem BioAssay (NCATS).
This list was built around the results that the source calls inconclusive (neither active nor inactive); the mix of calls is not that of the screen. Potencies of inconclusive entries are doubtful fits and often do not repeat. Active and inactive are the calls of the source. The call rests on the fitted dose curve; in most records, active means well fitted cell-killing curve with a large enough effect; inconclusive means small, poorly fitted or top-dose-only effect, or effect the other way; inactive means no such curve, though single readings can be large or run the other way.

What was measured:
[1] = Quantitative High-Throughput drug screen in 47 multiple myeloma cell lines against the NCATS MIPE library collection: LP1_DSMZ cell viability assay (AID 1918982); settings: LP1 myeloma viability, CellTiter-Glo ATP luminescence, 48 h; viability (% of control): at 45.8 µM (top of the series); further: nearly all actives have a fitted effect of over 35% in size
How it was run: (§1)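 MIPE 4.0 approved/investigational drugs; 500 cells/well; 48 h 37 °C humidified 5% CO2; CTG luminescence readout; DMSO = 100%, media = 0% viability.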

[2] = Quantitative High-Throughput drug screen in 47 multiple myeloma cell lines against the NCATS MIPE library collection: L363_DSMZ cell viability assay (AID 1918984); settings: L363 myeloma viability, CellTiter-Glo ATP luminescence, 48 h; viability (% of control): at 45.8 µM (top of the series); further: nearly all actives have a fitted effect of over 40% in size
How it was run: as §1

[3] = Quantitative High-Throughput drug screen in 47 multiple myeloma cell lines against the NCATS MIPE library collection: OCIMY7_PLB cell viability assay (AID 1918987); settings: OCI-MY7 myeloma viability, CellTiter-Glo ATP, 48 h; viability (% of DMSO): at 45.8 µM (top of the series); further: nearly all actives have a fitted effect of over 65% in size
How it was run: as §1

[4] = Quantitative High-Throughput drug screen in 47 multiple myeloma cell lines against the NCATS MIPE library collection: OCIMY5_PLB cell viability assay (AID 1918988); settings: OCI-MY5 myeloma viability, ATP luminescence, 48 h; viability, % of control: at 45.8 µM (top of the series); further: nearly all actives have a fitted effect of over 65% in size;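 on viability, % of control: 100% = DMSO-treated wells and 0% = wells with media alone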
How it was run: as §1

[5] = Quantitative High-Throughput drug screen in 47 multiple myeloma cell lines against the NCATS MIPE library collection: SKMM1_PLB cell viability assay (AID 1919863); settings: SKMM1 myeloma viability, CellTiter-Glo ATP, 48 h; viability: hits give low values; further: nearly all actives have a fitted effect of over 35% in size
How it was run: as §1

[6] = Quantitative High-Throughput drug screen in 47 multiple myeloma cell lines against the NCATS MIPE library collection: U266_ATCC cell viability assay (AID 1919864); settings: U266 myeloma viability, CellTiter-Glo ATP luminescence, 48 h; series mostly up to 45.8 µM; further: nearly all actives have a fitted effect of over 35% in size
How it was run: as §1

[7] = Quantitative High-Throughput drug screen in 47 multiple myeloma cell lines against the NCATS MIPE library collection: KMS34_JCRB cell viability assay (AID 1918985); settings: KMS34 myeloma viability, CellTiter-Glo ATP luminescence, 48 h; viability, percent of control: at 45.8 µM (top of the series); further: nearly all actives have a fitted effect of over 40% in size
How it was run: as §1

[8] = Quantitative High-Throughput drug screen in 47 multiple myeloma cell lines against the NCATS MIPE library collection: OPM1_PLB cell viability assay (AID 1918989); settings: CellTiter-Glo, 48 h; viability (% of control): at 45.8 µM (top of the series); further: nearly all actives have a fitted effect of over 40% in size
How it was run: as §1

[9] = Quantitative High-Throughput drug screen in 47 multiple myeloma cell lines against the NCATS MIPE library collection: KMS28PE_JCRB cell viability assay (AID 1918983); settings: KMS28PE multiple myeloma viability, CellTiter-Glo ATP, 48 h; series mostly up to 45.8 µM; further: nearly all actives have a fitted effect of over 35% in size
How it was run: as §1
Potency means the concentration at half of the fitted maximal effect.

Cc1nc(NC(=O)N2CCC[C@@H]2C(N)=O)sc1-c1ccnc(C(C)(C)C(F)(F)F)c1
Potency [1]: active: 1.48 µM | Potency [2]: inconclusive: 0.296 µM [cytotoxic, full curve, poor fit] | Potency [3]: inconclusive: 0.0093 µM [cytotoxic, full curve, poor fit]

O=C(NNC(=O)c1ccc(CNS(=O)(=O)c2ccc(F)c(Cl)c2)cc1)c1ccccc1
Potency [1]: inconclusive: 0.003 µM [rising, full curve, poor fit] | Potency [2]: inconclusive: 1.66 µM [rising, full curve, poor fit] | Potency [3]: inconclusive: 0.0013 µM [rising, full curve, poor fit] | Potency [4]: inactive | viability [5]: inactive: 126% | Potency [6]: inactive

Cc1c(NC(=O)c2ccc(C(C)(C)C)cc2)cccc1-c1cn(C)c(=O)c(Nc2ccc(C(=O)N3CCOCC3)cc2)n1
Potency [1]: inconclusive: 23.5 µM [cytotoxic, partial curve] | Potency [2]: inconclusive: 7.43 µM [cytotoxic, single point] | Potency [7]: inconclusive: 23.5 µM [cytotoxic, partial curve, poor fit] | Potency [5]: inconclusive: 23.5 µM [cytotoxic, partial curve, poor fit]

COc1cc2nc(N3CCN(C(=O)C4CCCO4)CC3)nc(N)c2cc1OC (stereo unspecified)
viability (% of control) [1]: inconclusive: 72.8% [cytotoxic] | Potency [7]: inconclusive: 10.5 µM [rising, partial curve, poor fit] | Potency [4]: inconclusive: 0.0166 µM [cytotoxic, full curve, poor fit] | Potency [5]: inconclusive: 37.2 µM [cytotoxic, single point]

CN1C(=O)C(Cc2c[nH]c3ccccc23)NC1=S (stereo unspecified)
Potency [1]: inactive | Potency [2]: inactive | Potency [7]: inactive | Potency [4]: inconclusive: 0.0012 µM [rising, full curve, poor fit]

O=C(Nc1ccc(OC(F)(F)F)cc1)c1sccc1NCc1ccnc2ccccc12
Potency [1]: active: 20.9 µM | Potency [2]: inconclusive: 5.9 µM [cytotoxic, full curve] | Potency [7]: active: 10.5 µM | Potency [5]: active: 18.7 µM | Potency [6]: inconclusive: 20.9 µM [cytotoxic, partial curve, poor fit]

CC(=O)O[C@]1(C(C)=O)CC[C@H]2[C@@H]3C=C(C)C4=CC(=O)CC[C@]4(C)[C@@H]3CC[C@@]21C
Potency [1]: inconclusive: 16.6 µM [cytotoxic, partial curve, poor fit] | Potency [2]: active: 9.35 µM | Potency [7]: inactive | Potency [4]: inconclusive: 23.5 µM [cytotoxic, partial curve, poor fit] | Potency [8]: inconclusive: 0.0166 µM [rising, full curve, poor fit] | Potency [5]: inconclusive: 7.43 µM [cytotoxic, full curve, poor fit]

CC(C)NCC(O)COc1ccc(CCOCC2CC2)cc1 (stereo unspecified)
Potency [1]: inactive | Potency [2]: inactive | Potency [7]: active: 5.9 µM | Potency [4]: inactive | Potency [5]: inconclusive: 2.64 µM [cytotoxic, partial curve, poor fit] | Potency [6]: inconclusive: 20.9 µM [cytotoxic, partial curve, poor fit]

O=c1[nH]cc(F)c(=O)[nH]1
Potency [1]: active: 14.8 µM | Potency [2]: inconclusive: 14.8 µM [cytotoxic, partial curve, poor fit] | Potency [7]: inconclusive: 3.72 µM [cytotoxic, full curve, poor fit] | Potency [4]: inactive | Potency [8]: inconclusive: 5.9 µM [cytotoxic, partial curve, poor fit]

CC1=C(C(=O)O)N2C(=O)[C@@H](NC(=O)[C@H](N)C3=CCC=CC3)[C@H]2SC1
Potency [9]: inconclusive: 0.0019 µM [rising, full curve, poor fit] | Potency [2]: inconclusive: 0.001 µM [cytotoxic] | Potency [7]: inactive | Potency [3]: inconclusive: 0.0074 µM [rising, full curve, poor fit] | Potency [4]: inactive

c1ccc2c(Cc3c[nH]c4ccccc34)c[nH]c2c1
Potency [1]: inconclusive: 16.6 µM [cytotoxic, partial curve] | Potency [2]: inconclusive: 8.33 µM [cytotoxic, partial curve, poor fit] | Potency [7]: inconclusive: 29.6 µM [cytotoxic, single point] | Potency [6]: active: 2.96 µM

CCNC(=O)CCCC=CC[C@@H]1[C@H](C=CC(O)CCc2ccccc2)[C@@H](O)C[C@@H]1O (stereo partly specified)
Potency [1]: inactive | Potency [2]: inactive | Potency [7]: inconclusive: 9.35 µM [cytotoxic, full curve] | Potency [3]: inconclusive: 37.2 µM [rising, single point] | Potency [5]: inconclusive: 3.72 µM [cytotoxic, full curve, poor fit]

Cc1[nH]c(C=C2C(=O)Nc3ccc(S(=O)(=O)Cc4c(Cl)cccc4Cl)cc32)c(C)c1C(=O)N1CCC[C@H]1CN1CCCC1
Potency [1]: active: 23.5 µM | Potency [2]: active: 2.35 µM | Potency [5]: active: 20.9 µM | Potency [6]: active: 23.5 µM

Cc1[nH]c(=O)c(C#N)cc1-c1ccncc1
Potency [1]: inconclusive: 20.9 µM [cytotoxic, single point] | Potency [2]: inactive | Potency [3]: inconclusive: 18.7 µM [cytotoxic, partial curve, poor fit] | Potency [4]: inconclusive: 0.0017 µM [cytotoxic, full curve, poor fit] | Potency [8]: active: 16.6 µM | viability [5]: inactive: 106%

CN(C(Cc1ccc(OS(=O)(=O)c2cccc3cnccc23)cc1)C(=O)N1CCN(c2ccccc2)CC1)S(=O)(=O)c1cccc2cnccc12 (stereo unspecified)
Potency [1]: inconclusive: 7.43 µM [cytotoxic, full curve] | Potency [2]: inconclusive: 6.62 µM [cytotoxic, partial curve, poor fit] | Potency [7]: inconclusive: 5.26 µM [cytotoxic, full curve] | Potency [3]: active: 4.69 µM | Potency [4]: active: 13.2 µM | Potency [6]: active: 13.2 µM

CCCCC(CC)COC(=O)C(C#N)=C(c1ccccc1)c1ccccc1 (stereo unspecified)
Potency [1]: inconclusive: 37.2 µM [cytotoxic, single point] | Potency [2]: inconclusive: 0.003 µM [rising, full curve, poor fit] | Potency [7]: inactive | Potency [3]: inactive | Potency [4]: inconclusive: 1.66 µM [cytotoxic, full curve, poor fit] | viability [5]: inactive: 130% | Potency [6]: inconclusive: 0.132 µM [rising, full curve]

O=C(CCN1CCN(C(=O)OCc2cc(Cl)cc(Cl)c2)CC1)c1ccc2[nH]c(=O)oc2c1
Potency [1]: inconclusive: 0.0012 µM [cytotoxic, full curve, poor fit] | Potency [2]: inconclusive: 0.0012 µM [cytotoxic, full curve, poor fit] | Potency [7]: inactive | Potency [4]: inconclusive: 10.5 µM [cytotoxic, full curve, poor fit] | viability [5]: inactive: 136% | Potency [6]: inactive
